In the supplement of paper PMC8728848:
The other results are listed elsewhere or left out.

Tests used:
Test in all cases: glycan array binding signal (z-score within array); higher = stronger binding
Details in all cases: glycan notation: IUPAC condensed, linker removed
[1] = target: Gal(b1-4)GlcNAc(b1-3)Gal(b1-4)GlcNAc(b1-2)Man(a1-3)[Gal(b1-4)GlcNAc(b1-3)Gal(b1-4)GlcNAc(b1-2)Man(a1-6)]Man(b1-4)GlcNAc(b1-4)[Fuc(a1-6)]GlcNAc
Method in brief: (§1)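 Arrays were curated from the Consortium for Functional Glycomics database, 3228 in total, and kept only where the protein sequence was available. Binding is expressed as a within-array Z-score. This score was averaged across arrays of the same protein sequence at different concentrations or buffers and across linkers, and negative values can be read as non-binding.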

[2] = target: Gal(b1-4)GlcNAc(b1-3)Gal(b1-4)GlcNAc(b1-2)[Gal(b1-4)GlcNAc(b1-3)Gal(b1-4)GlcNAc(b1-6)]Man(a1-6)[Gal(b1-4)GlcNAc(b1-3)Gal(b1-4)GlcNAc(b1-2)Man(a1-3)]Man(b1-4)GlcNAc(b1-4)GlcNAc
Method in brief: as §1

[3] = target: Gal(b1-4)GlcNAc(b1-3)Gal(b1-4)GlcNAc(b1-2)[Gal(b1-4)GlcNAc(b1-3)Gal(b1-4)GlcNAc(b1-6)]Man(a1-6)[Gal(b1-4)GlcNAc(b1-3)Gal(b1-4)GlcNAc(b1-2)Man(a1-3)]Man(b1-4)GlcNAc(b1-4)[Fuc(a1-6)]GlcNAc
Method in brief: as §1

[4] = target: Gal(b1-4)GlcNAc(b1-3)Gal(b1-4)GlcNAc(b1-3)Gal(b1-4)GlcNAc
Method in brief: as §1

[5] = target: Gal(b1-4)GlcNAc(b1-3)Gal(b1-4)GlcNAc(b1-3)Gal(b1-4)GlcNAc(b1-2)Man(a1-3)[Gal(b1-4)GlcNAc(b1-3)Gal(b1-4)GlcNAc(b1-3)Gal(b1-4)GlcNAc(b1-2)Man(a1-6)]Man(b1-4)GlcNAc(b1-4)GlcNAc
Method in brief: as §1

[6] = target: Gal(b1-4)GlcNAc(b1-3)Gal(b1-4)GlcNAc(b1-3)Gal(b1-4)GlcNAc(b1-2)Man(a1-3)[Gal(b1-4)GlcNAc(b1-3)Gal(b1-4)GlcNAc(b1-3)Gal(b1-4)GlcNAc(b1-2)Man(a1-6)]Man(b1-4)GlcNAc(b1-4)[Fuc(a1-6)]GlcNAc
Method in brief: as §1

[7] = target: Gal(b1-4)GlcNAc(b1-3)Gal(b1-4)GlcNAc(b1-3)Gal(b1-4)GlcNAc(b1-2)[Gal(b1-4)GlcNAc(b1-3)Gal(b1-4)GlcNAc(b1-3)Gal(b1-4)GlcNAc(b1-6)]Man(a1-6)[Gal(b1-4)GlcNAc(b1-3)Gal(b1-4)GlcNAc(b1-3)Gal(b1-4)GlcNAc(b1-2)Man(a1-3)]Man(b1-4)GlcNAc(b1-4)[Fuc(a1-6)]GlcNAc
Method in brief: as §1

[8] = target: Gal(b1-4)GlcNAc(b1-3)Gal(b1-4)GlcNAc(b1-3)Gal(b1-4)GlcNAc(b1-3)Gal(b1-4)GlcNAc(b1-2)Man(a1-3)[Gal(b1-4)GlcNAc(b1-3)Gal(b1-4)GlcNAc(b1-3)Gal(b1-4)GlcNAc(b1-3)Gal(b1-4)GlcNAc(b1-2)Man(a1-6)]Man(b1-4)GlcNAc(b1-4)GlcNAc
Method in brief: as §1

[9] = target: Gal(b1-4)GlcNAc(b1-3)Gal(b1-4)GlcNAc(b1-3)Gal(b1-4)GlcNAc(b1-3)Gal(b1-4)GlcNAc(b1-2)Man(a1-3)[Gal(b1-4)GlcNAc(b1-3)Gal(b1-4)GlcNAc(b1-3)Gal(b1-4)GlcNAc(b1-3)Gal(b1-4)GlcNAc(b1-2)Man(a1-6)]Man(b1-4)GlcNAc(b1-4)[Fuc(a1-6)]GlcNAc
Method in brief: as §1

[10] = target: Gal(b1-4)GlcNAc(b1-3)Gal(b1-4)GlcNAc(b1-3)Gal(b1-4)GlcNAc(b1-3)Gal(b1-4)GlcNAc(b1-2)[Gal(b1-4)GlcNAc(b1-3)Gal(b1-4)GlcNAc(b1-3)Gal(b1-4)GlcNAc(b1-3)Gal(b1-4)GlcNAc(b1-6)]Man(a1-6)[Gal(b1-4)GlcNAc(b1-3)Gal(b1-4)GlcNAc(b1-3)Gal(b1-4)GlcNAc(b1-3)Gal(b1-4)GlcNAc(b1-2)Man(a1-3)]Man(b1-4)GlcNAc(b1-4)[Fuc(a1-6)]GlcNAc
Method in brief: as §1

[11] = target: Gal(b1-4)GlcNAc(b1-3)Gal(b1-4)GlcNAc(b1-3)Gal(b1-4)GlcNAc(b1-3)Gal(b1-4)GlcNAc(b1-3)Gal(b1-4)GlcNAc(b1-2)Man(a1-3)[Gal(b1-4)GlcNAc(b1-3)Gal(b1-4)GlcNAc(b1-3)Gal(b1-4)GlcNAc(b1-3)Gal(b1-4)GlcNAc(b1-3)Gal(b1-4)GlcNAc(b1-2)Man(a1-6)]Man(b1-4)GlcNAc(b1-4)GlcNAc
Method in brief: as §1

[12] = target: Gal(b1-4)GlcNAc(b1-3)Gal(b1-4)GlcNAc(b1-3)Gal(b1-4)GlcNAc(b1-3)Gal(b1-4)GlcNAc(b1-3)Gal(b1-4)GlcNAc(b1-2)Man(a1-3)[Gal(b1-4)GlcNAc(b1-3)Gal(b1-4)GlcNAc(b1-3)Gal(b1-4)GlcNAc(b1-3)Gal(b1-4)GlcNAc(b1-3)Gal(b1-4)GlcNAc(b1-2)Man(a1-6)]Man(b1-4)GlcNAc(b1-4)[Fuc(a1-6)]GlcNAc
Method in brief: as §1

[13] = target: Gal(b1-4)GlcNAc(b1-3)Gal(b1-4)GlcNAc(b1-3)Gal(b1-4)GlcNAc(b1-3)Gal(b1-4)GlcNAc(b1-3)Gal(b1-4)GlcNAc(b1-2)[Gal(b1-4)GlcNAc(b1-3)Gal(b1-4)GlcNAc(b1-3)Gal(b1-4)GlcNAc(b1-3)Gal(b1-4)GlcNAc(b1-3)Gal(b1-4)GlcNAc(b1-6)]Man(a1-6)[Gal(b1-4)GlcNAc(b1-3)Gal(b1-4)GlcNAc(b1-3)Gal(b1-4)GlcNAc(b1-3)Gal(b1-4)GlcNAc(b1-3)Gal(b1-4)GlcNAc(b1-2)Man(a1-3)]Man(b1-4)GlcNAc(b1-4)[Fuc(a1-6)]GlcNAc
Method in brief: as §1

[14] = target: Gal(b1-4)GlcNAc(b1-3)Gal(b1-4)GlcNAc(b1-3)Gal(b1-4)GlcNAc(b1-3)Gal(b1-4)GlcNAc(b1-3)Gal(b1-4)GlcNAc(b1-3)Gal(b1-4)GlcNAc(b1-2)Man(a1-3)[Gal(b1-4)GlcNAc(b1-3)Gal(b1-4)GlcNAc(b1-3)Gal(b1-4)GlcNAc(b1-3)Gal(b1-4)GlcNAc(b1-3)Gal(b1-4)GlcNAc(b1-3)Gal(b1-4)GlcNAc(b1-2)Man(a1-6)]Man(b1-4)GlcNAc(b1-4)GlcNAc
Method in brief: as §1

[15] = target: Gal(b1-4)GlcNAc(b1-3)Gal(b1-4)GlcNAc(b1-3)GalNAc
Method in brief: as §1

[16] = target: Gal(b1-4)GlcNAc(b1-3)Gal(b1-4)GlcNAc(b1-3)[Gal(b1-4)GlcNAc(b1-3)Gal(b1-4)GlcNAc(b1-6)]GalNAc
Method in brief: as §1

[17] = target: Gal(b1-4)GlcNAc(b1-3)Gal(b1-4)GlcNAc(b1-6)[Gal(b1-3)]GalNAc
Method in brief: as §1

[18] = target: Gal(b1-4)GlcNAc(b1-3)Gal(b1-4)[Fuc(a1-3)GlcNAc(b1-6)]Gal(b1-4)Glc
Method in brief: as §1

[19] = target: Gal(b1-4)GlcNAc(b1-3)Gal(b1-4)[Fuc(a1-3)]GlcNAc(b1-3)Gal(b1-4)[Fuc(a1-3)]GlcNAc
Method in brief: as §1

B1: Flo1 (Saccharomyces cerevisiae), P32768 (protein)
chain: SGATEACLPAGQRKSGMNINFYQYSLKDSSTYSNAAYMAYGYASKTKLGSVGGQTDISIDYNIPCVSSSGTFPCPQEDSYGNWGCKGMGACSNSQGIAYWSTDLFGFYTTPTNVTLEMTGYFLPPQTGSYTFKFATVDDSAILSVGGATAFNCCAQQQPPITSTNFTIDGIKPWGGSLPPNIEGTVYMYAGYYYPMKVVYSNAVSWGTLPISVTLPDGTTVSDDFEGYVYSFDDDLSQSNCTVPDPSNY
glycan array binding signal (z-score) [1]: 8.23 | glycan array binding signal (z-score) [2]: -0.252 | glycan array binding signal (z-score) [3]: 0.387 | glycan array binding signal (z-score) [4]: -0.021 | glycan array binding signal (z-score) [5]: 0.163 | glycan array binding signal (z-score) [6]: -0.339 | glycan array binding signal (z-score) [7]: 0.302 | glycan array binding signal (z-score) [8]: 0.181 | glycan array binding signal (z-score) [9]: 0.264 | glycan array binding signal (z-score) [10]: 1.44 | glycan array binding signal (z-score) [11]: 0.035 | glycan array binding signal (z-score) [12]: -0.23 | glycan array binding signal (z-score) [13]: 0.006 | glycan array binding signal (z-score) [14]: 0.026 | glycan array binding signal (z-score) [15]: -0.627 | glycan array binding signal (z-score) [16]: -0.342 | glycan array binding signal (z-score) [17]: -0.496 | glycan array binding signal (z-score) [18]: -0.778 | glycan array binding signal (z-score) [19]: -0.079
